{
  "source": "ChEMBL document CHEMBL4316593",
  "about": "(Eur J Med Chem, 2019)",
  "format_in_all_cases": "cell-based",
  "settings_in_all_cases": "U-87MG ATCC",
  "key": {"[1]": {"experiment": "Inhibition of RTK assessed as Inhibition of RTK/PI3K/AKT/mTOR signaling in human U87 cells assessed as down regulation of MAPK8 gene expression at cytotoxic IC50 measured after 48 hrs relative to control"}, "[2]": {"experiment": "Inhibition of RTK/PI3K/AKT/mTOR signaling in human U87 cells assessed as down regulation of SUPT7L gene expression at cytotoxic IC50 measured after 48 hrs relative to control"}, "[3]": {"experiment": "Inhibition of RTK/PI3K/AKT/mTOR signaling in human U87 cells assessed as up regulation of LRPPRC gene expression at cytotoxic IC50 measured after 48 hrs relative to control"}, "[4]": {"experiment": "Inhibition of RTK/PI3K/AKT/mTOR signaling in human U87 cells assessed as up regulation of OTU deubiquitinase, ubiquitin aldehyde binding 2 gene expression at cytotoxic IC50 measured after 48 hrs relative to control"}, "[5]": {"experiment": "Inhibition of RTK/PI3K/AKT/mTOR signaling in human U87 cells assessed as up regulation of neuralized E3 ubiquitin protein ligase 1B gene expression at cytotoxic IC50 measured after 48 hrs relative to control"}, "[6]": {"experiment": "Inhibition of RTK/PI3K/AKT/mTOR signaling in human U87 cells assessed as down regulation of TEP1 gene expression at cytotoxic IC50 measured after 48 hrs relative to control"}, "[7]": {"experiment": "Inhibition of RTK/PI3K/AKT/mTOR signaling in human U87 cells assessed as down regulation of DNAJB4 gene expression at cytotoxic IC50 measured after 48 hrs relative to control"}, "[8]": {"experiment": "Inhibition of RTK/PI3K/AKT/mTOR signaling in human U87 cells assessed as down regulation of OTUD6B gene expression at cytotoxic IC50 measured after 48 hrs relative to control"}, "[9]": {"experiment": "Inhibition of RTK/PI3K/AKT/mTOR signaling in human U87 cells assessed as up regulation of ANGPTL4 gene expression at cytotoxic IC50 measured after 48 hrs relative to control"}, "[10]": {"experiment": "Inhibition of RTK/PI3K/AKT/mTOR signaling in human U87 cells assessed as down regulation of PPP1R13B gene expression at cytotoxic IC50 measured after 48 hrs relative to control"}, "[11]": {"experiment": "Inhibition of RTK/PI3K/AKT/mTOR signaling in human U87 cells assessed as down regulation of CEP170B gene expression at cytotoxic IC50 measured after 48 hrs relative to control"}, "[12]": {"experiment": "Inhibition of RTK/PI3K/AKT/mTOR signaling in human U87 cells assessed as up regulation of claudin 4 gene expression at cytotoxic IC50 measured after 48 hrs relative to control"}, "[13]": {"experiment": "Inhibition of RTK/PI3K/AKT/mTOR signaling in human U87 cells assessed as down regulation of SNX2 gene expression at cytotoxic IC50 measured after 48 hrs relative to control"}, "[14]": {"experiment": "Inhibition of RTK/PI3K/AKT/mTOR signaling in human U87 cells assessed as up regulation of NADH dehydrogenase, subunit 1 (complex I) gene expression at cytotoxic IC50 measured after 48 hrs relative to control"}, "[15]": {"experiment": "Inhibition of RTK/PI3K/AKT/mTOR signaling in human U87 cells assessed as down regulation of ZFYVE9 gene expression at cytotoxic IC50 measured after 48 hrs relative to control"}, "[16]": {"experiment": "Inhibition of RTK/PI3K/AKT/mTOR signaling in human U87 cells assessed as down regulation of SLF1 gene expression at cytotoxic IC50 measured after 48 hrs relative to control"}, "[17]": {"experiment": "Inhibition of RTK/PI3K/AKT/mTOR signaling in human U87 cells assessed as down regulation of GMNN gene expression at cytotoxic IC50 measured after 48 hrs relative to control"}, "[18]": {"experiment": "Inhibition of RTK/PI3K/AKT/mTOR signaling in human U87 cells assessed as up regulation of collagen type I alpha 1 chain gene expression at cytotoxic IC50 measured after 48 hrs relative to control"}, "[19]": {"experiment": "Inhibition of RTK/PI3K/AKT/mTOR signaling in human U87 cells assessed as up regulation of ASS1 gene expression at cytotoxic IC50 measured after 48 hrs relative to control"}, "[20]": {"experiment": "Inhibition of RTK/PI3K/AKT/mTOR signaling in human U87 cells assessed as down regulation of MAP2K3 gene expression at cytotoxic IC50 measured after 48 hrs relative to control"}, "[21]": {"experiment": "Inhibition of RTK/PI3K/AKT/mTOR signaling in human U87 cells assessed as down regulation of ADRM1 gene expression at cytotoxic IC50 measured after 48 hrs relative to control"}, "[22]": {"experiment": "Inhibition of RTK/PI3K/AKT/mTOR signaling in human U87 cells assessed as down regulation of RAB30 gene expression at cytotoxic IC50 measured after 48 hrs relative to control"}, "[23]": {"experiment": "Inhibition of RTK/PI3K/AKT/mTOR signaling in human U87 cells assessed as down regulation of SMNDC1 gene expression at cytotoxic IC50 measured after 48 hrs relative to control"}, "[24]": {"experiment": "Inhibition of RTK/PI3K/AKT/mTOR signaling in human U87 cells assessed as up regulation of S100 calcium binding protein A6 gene expression at cytotoxic IC50 measured after 48 hrs relative to control"}, "[25]": {"experiment": "Inhibition of RTK/PI3K/AKT/mTOR signaling in human U87 cells assessed as up regulation of ankyrin repeat and zinc finger domain containing 1 gene expression at cytotoxic IC50 measured after 48 hrs relative to control"}, "[26]": {"experiment": "Inhibition of RTK/PI3K/AKT/mTOR signaling in human U87 cells assessed as down regulation of CCND3 gene expression at cytotoxic IC50 measured after 48 hrs relative to control"}, "[27]": {"experiment": "Inhibition of RTK/PI3K/AKT/mTOR signaling in human U87 cells assessed as down regulation of ITPKC gene expression at cytotoxic IC50 measured after 48 hrs relative to control"}, "[28]": {"experiment": "Inhibition of RTK/PI3K/AKT/mTOR signaling in human U87 cells assessed as up regulation of PWWP domain containing 2B gene expression at cytotoxic IC50 measured after 48 hrs relative to control"}, "[29]": {"experiment": "Inhibition of RTK/PI3K/AKT/mTOR signaling in human U87 cells assessed as down regulation of TAF3 gene expression at cytotoxic IC50 measured after 48 hrs relative to control"}, "[30]": {"experiment": "Inhibition of RTK/PI3K/AKT/mTOR signaling in human U87 cells assessed as down regulation of ZC3H13 gene expression at cytotoxic IC50 measured after 48 hrs relative to control"}, "[31]": {"experiment": "Inhibition of RTK/PI3K/AKT/mTOR signaling in human U87 cells assessed as up regulation of myeloma overexpressed gene expression at cytotoxic IC50 measured after 48 hrs relative to control"}, "[32]": {"experiment": "Inhibition of RTK/PI3K/AKT/mTOR signaling in human U87 cells assessed as down regulation of SVIL-AS1 gene expression at cytotoxic IC50 measured after 48 hrs relative to control"}},
  "note": "Further values from the same series stand in other lists.",
  "data": [
    {"smiles": "CC(=O)C(=NNc1ccccc1C#N)C(C)=O", "values": [
      {"measurement": "log2FC", "setting": "[1]", "value": -0.753},
      {"measurement": "log2FC", "setting": "[2]", "value": -0.55},
      {"measurement": "log2FC", "setting": "[3]", "value": 0.459},
      {"measurement": "log2FC", "setting": "[4]", "value": 1.54},
      {"measurement": "log2FC", "setting": "[5]", "value": 0.956},
      {"measurement": "log2FC", "setting": "[6]", "value": -0.974},
      {"measurement": "log2FC", "setting": "[7]", "value": -1.23},
      {"measurement": "log2FC", "setting": "[8]", "value": -0.833},
      {"measurement": "log2FC", "setting": "[9]", "value": 3.25},
      {"measurement": "log2FC", "setting": "[10]", "value": -0.97},
      {"measurement": "log2FC", "setting": "[11]", "value": -0.605},
      {"measurement": "log2FC", "setting": "[12]", "value": 1.02},
      {"measurement": "log2FC", "setting": "[13]", "value": -0.772},
      {"measurement": "log2FC", "setting": "[14]", "value": 0.975},
      {"measurement": "log2FC", "setting": "[15]", "value": -0.639},
      {"measurement": "log2FC", "setting": "[16]", "value": -1.55},
      {"measurement": "log2FC", "setting": "[17]", "value": -1.8},
      {"measurement": "log2FC", "setting": "[18]", "value": 1.19},
      {"measurement": "log2FC", "setting": "[19]", "value": 1.81},
      {"measurement": "log2FC", "setting": "[20]", "value": -1.2},
      {"measurement": "log2FC", "setting": "[21]", "value": -1.21},
      {"measurement": "log2FC", "setting": "[22]", "value": -1.21},
      {"measurement": "log2FC", "setting": "[23]", "value": -0.558},
      {"measurement": "log2FC", "setting": "[24]", "value": 1.54},
      {"measurement": "log2FC", "setting": "[25]", "value": 0.686},
      {"measurement": "log2FC", "setting": "[26]", "value": -1.62},
      {"measurement": "log2FC", "setting": "[27]", "value": -1.15},
      {"measurement": "log2FC", "setting": "[28]", "value": 1.18},
      {"measurement": "log2FC", "setting": "[29]", "value": -1.16},
      {"measurement": "log2FC", "setting": "[30]", "value": -0.63},
      {"measurement": "log2FC", "setting": "[31]", "value": 1.11},
      {"measurement": "log2FC", "setting": "[32]", "value": -0.969}
    ]}
  ]
}
